# Measured values reported in PubChem BioAssay AID504444 (National Center for Advancing Translational Sciences (NCATS), 2011).
# Screen size: about 360,000 compounds; about 7,500 (2.1%) were called active. The inconclusive results got no clear call from the source; some entries with a clear call stand among them for comparison. The call rests on the fitted dose curve; in most records, active means well fitted inhibition curve with a large enough effect; inconclusive means small, poorly fitted or top-dose-only effect, or effect the other way; inactive means flat fitted curve, though single readings scatter. Where the call is inconclusive, the potency comes from a doubtful curve fit.
# Assay: Nrf2 qHTS screen for inhibitors; further: nearly all actives have a fitted effect of over 60% in size
# Conditions: A549 ARE-Fluc reporter, luciferase luminescence, 18-24 h; activity change, negative = inhibition: at 46 µM (top of the series)
# In short: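 Two sequential reads on A549 ARE_Fluc cells exposed to compound for 18-24 h: a CellTiter-Fluor fluorescence read for viability, then a luciferase luminescence read for Nrf2/ARE activity.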
# On the % scale 0 is the no-effect control and ±100 the full control effect; potency means the concentration at half of the fitted maximal effect.
Structure (SMILES),Potency,"activity change, negative = inhibition"
Cc1ccc(OCC(=O)Nc2ccc3nc(SCC(=O)N4CCOCC4)sc3c2)cc1C,inactive,
C=C1CC(COc2ccc3c(C)c(Cl)c(=O)oc3c2)(c2ccccc2)OC1=O (centres undefined),"inconclusive: 14.6 µM [falling, partial curve]",
CC(C)(C)c1[nH]c2ccccc2c1/C=N/O,"inconclusive: 29.1 µM [activator, single point]",
Cc1ccc2cccc(NC(=O)c3ccc(C#N)cc3F)c2n1,"inconclusive: 6.51 µM [falling, single point]",
O=C1c2ccccc2NC(c2ccc(Cl)cc2Cl)N1O (centres undefined),"inconclusive: 32.6 µM [falling, partial curve, poor fit]",
Cc1ccc(S(=O)(=O)c2nnn3c2nc(N2CCOCC2)c2ccccc23)cc1C,"inconclusive: 13 µM [falling, partial curve, poor fit]",
COc1ccc(/C=C/C(=O)Nc2ccccc2)cc1OC,"inconclusive: 10.3 µM [activator, partial curve]",
COc1ccc(N2CCN(c3ccc([N+](=O)[O-])nc3)CC2)cc1,"inconclusive: 23.1 µM [falling, partial curve, poor fit]",
CC(C)c1ccc(NC(=O)c2ccc3c(c2)C(=O)N(Cc2cccnc2)C3=O)cc1,"inconclusive: 29.1 µM [falling, single point]",
Cc1ccccc1NC(=O)CN1CCN(Cc2ccccc2)CC1,"inconclusive: 6.51 µM [activator, partial curve]",
O=c1[nH]nc(Sc2ncnc3sccc23)n1CCc1ccccc1,active: 14.6 µM,
O=C1CN(C(=O)c2ccc(S(=O)(=O)N3CCCCC3)cc2)C(c2ccc(F)cc2)c2cc(Br)ccc2N1 (centres undefined),,inactive: -17.8% [at 9.27 µM]
N#Cc1c(/N=C/c2cccnc2)sc2c1CCCC2,"inconclusive: 16.4 µM [activator, partial curve, poor fit]",
N#CCC(=O)Nc1ccc(C(=O)OCC(=O)NC2CCCCCC2)cc1,"inconclusive: 29.1 µM [activator, single point]",
CN(C)C(=O)CCc1ccc2c3c([nH]c2c1)[C@]1(C)[C@@H](C(=O)N2CCOCC2)C[C@H](CC(=O)NCC24CC5CC(CC(C5)C2)C4)C(=O)N1CC3,inactive,
C=CCSC(=C(C#N)C#N)c1cc2c([nH]1)CCCC2,"inconclusive: 14.6 µM [falling, partial curve, poor fit]",
COc1cccc(NC(=O)Nc2cccc(C(=O)O)c2)c1,"inconclusive: 6.51 µM [activator, partial curve]",
COc1ccc(CCC(=O)N2CCN(c3cccc(C)c3C)CC2)cc1,inactive,
O=C(CN1CCN(c2cccc(Cl)c2)CC1)Nc1ccc(S(=O)(=O)N2CCOCC2)cc1,"inconclusive: 23.1 µM [falling, partial curve, poor fit]",
O=C(OC1CCCCC1=O)c1cccc(S(=O)(=O)N2CCCCC2)c1 (centres undefined),"inconclusive: 4.61 µM [activator, partial curve, poor fit]",
CC(C)CC(C(=O)O)C(C)CC(=O)Nc1ccn(-c2ccccc2)n1 (centres undefined),"inconclusive: 6.51 µM [activator, single point]",
Cc1nn(C)cc1C1C2=C(CC(C)(C)CC2=O)N(c2ccccc2)C2=C1C(=O)CC(C)(C)C2,inactive,

Structure (SMILES),Potency,"activity change, negative = inhibition"
c1coc(CNc2nc(-c3cccs3)nc3ccccc23)c1,"inconclusive: 20.6 µM [activator, single point]",
O=C(CC1NCCNC1=O)Nc1cc(Cl)cc(Cl)c1 (centres undefined),"inconclusive: 0.103 µM [activator, full curve, poor fit]",
CCN1CCN(C(=O)c2cc(COc3ccc4ncccc4c3)on2)CC1,active: 20.6 µM,
CC1CC(C)C(=NNC(N)=O)C(C(O)CC2CCC(=O)NC2=O)C1 (centres undefined),"inconclusive: 20.6 µM [falling, partial curve]",
CC(C)c1cc(=O)n2[nH]c(SCc3ccccc3)nc2n1,"inconclusive: 13 µM [activator, partial curve, poor fit]",
Cc1cccc(-c2csc3ncnc(Sc4nnnn4C)c23)c1,"inconclusive: 25.9 µM [falling, single point]",
COC(=O)c1c(-c2ccc(OC)cc2)sc2ccc(OC)cc12,"inconclusive: 9.2 µM [activator, partial curve]",
CCCSc1nnc(NC(=O)c2ccco2)s1,"inconclusive: 29.1 µM [activator, single point]",
O=C(NCCc1ccccc1)C(=O)NC1CCCCC1,"inconclusive: 2.31 µM [activator, partial curve, poor fit]",
Cc1nc(SCCc2nc3ccccc3[nH]2)c2oc3ccccc3c2n1,inactive,
O=c1cc(/C=C/c2cccs2)[nH]c2ccccc12,active: 13 µM,
COCCCNCCOc1ccc(C(C)(C)c2ccccc2)cc1,"inconclusive: 29.1 µM [activator, partial curve, poor fit]",
C[C@H](NS(=O)(=O)c1ccccc1)C(=O)OCC(=O)NC(=O)Nc1ccc2c(c1)OCCO2,"inconclusive: 9.2 µM [activator, partial curve]",
c1ccc(-c2cccc(-c3ccccn3)n2)nc1,"inconclusive: 29.1 µM [activator, single point]",
CCc1ccccc1NC(=O)Nc1cccn(Cc2ccc(F)cc2)c1=O,"inconclusive: 18.4 µM [falling, single point]",
Cc1nc(-c2ccc(C(=O)Nc3ccc(F)cc3)cc2)cs1,"inconclusive: 18.4 µM [falling, single point]",
c1ccc(-c2cn3nc(-c4ccccc4)sc3n2)cc1,"inconclusive: 0.366 µM [activator, full curve, poor fit]",
CCOc1ccc(/C=N/NC(=O)c2nnn(-c3nonc3N)c2CN2CCC(C)CC2)cc1,"inconclusive: 29.1 µM [falling, single point]",
O=[N+]([O-])c1nn(-c2ccccc2)n(O)c1=NCCc1ccccc1,"inconclusive: 18.4 µM [activator, partial curve, poor fit]",
COCCn1c(SCC(=O)Nc2ccccc2)nc2c(oc3ccccc32)c1=O,"inconclusive: 18.4 µM [falling, single point]",
COc1ccc(CCN2C(=O)CS/C2=N\NC(=O)c2ccc(C(C)(C)C)cc2)cc1OC,"inconclusive: 2.31 µM [falling, partial curve, poor fit]",
Brc1c(CSc2nncc3ccccc23)nc2ccccn12,active: 8.2 µM,

# Molecules shown so far with fluorine (4):
Structure (SMILES),Potency,"activity change, negative = inhibition"
Cc1ccc2cccc(NC(=O)c3ccc(C#N)cc3F)c2n1,"inconclusive: 6.51 µM [falling, single point]",
O=C1CN(C(=O)c2ccc(S(=O)(=O)N3CCCCC3)cc2)C(c2ccc(F)cc2)c2cc(Br)ccc2N1 (centres undefined),,inactive: -17.8% [at 9.27 µM]
CCc1ccccc1NC(=O)Nc1cccn(Cc2ccc(F)cc2)c1=O,"inconclusive: 18.4 µM [falling, single point]",
Cc1nc(-c2ccc(C(=O)Nc3ccc(F)cc3)cc2)cs1,"inconclusive: 18.4 µM [falling, single point]",

# Next part:

Structure (SMILES),Potency,"activity change, negative = inhibition"
COc1cccc(-n2c(=O)c3c(C)c(C)sc3n(Cc3ccccc3C#N)c2=O)c1,,inactive: 4.95% [at 9.27 µM]
COc1ccc(/C=C/C(=O)Nc2ccc(-n3nncc3-c3ccccc3)cc2)cc1OC,"inconclusive: 16.4 µM [falling, single point]",
CCOc1ccc(CNC(=O)c2cc3ccccn3n2)cc1,"inconclusive: 5.17 µM [falling, full curve, poor fit]",
CCc1ccc(CCC(=O)Nc2ccc(C)c(C)c2)o1,inactive,
CCOC(=O)c1sc(C)c2c1NC1(CCCCC1)NC2=O,"inconclusive: 6.51 µM [falling, partial curve]",
Cc1ccc(CNCC(=O)Nc2cccc(S(=O)(=O)NC3=NCCCCC3)c2)cc1,"inconclusive: 18.4 µM [falling, partial curve, poor fit]",
O=C(N/N=C/c1ccccc1Cl)c1[nH]c2ccc(Br)cc2c1-c1ccccc1,"inconclusive: 25.9 µM [falling, single point]",
N/C(=N\OC(=O)c1ccc2c(c1)OCO2)c1cccc(Br)c1,"inconclusive: 6.51 µM [activator, partial curve]",
C=CCOc1cccc(/C=C2\C(=O)N(Cc3ccc(C)cc3)C(C)=C2C(=O)OC)c1,"inconclusive: 29.1 µM [activator, single point]",
O=C(O)c1ccccc1C(=O)NCC(O)COc1ccc(Cl)cc1 (centres undefined),inactive,
COc1ccc(CCNC(=O)c2ccc(CNS(=O)(=O)c3cccc(Cl)c3)cc2)cc1OC,inactive,
COP(=O)(CN(Cc1ccccc1)C(=S)Nc1c(C)cccc1C)OC,"inconclusive: 4.11 µM [falling, single point]",
CC(=O)c1cccc(NC(=O)Cc2ccc3c(c2)CCCC3)c1,"inconclusive: 32.6 µM [falling, single point]",
Cc1csc(SC(C)C(=O)Nc2ccc(S(=O)(=O)N3CCCC3)cc2)n1 (centres undefined),"inconclusive: 3.26 µM [falling, partial curve]",
CC1=C(C(=O)OC2CCCCC2)C(c2cccc([N+](=O)[O-])c2)NC(=O)N1 (centres undefined),"inconclusive: 23.1 µM [falling, single point]",
O=C1c2cccc(OCC(=O)N3N=C(c4cccs4)CC3c3ccc(F)cc3)c2CCN1Cc1cccnc1 (centres undefined),"inconclusive: 18.4 µM [falling, single point]",
CC(C)CCC(C)NC(=O)CN1C(=O)NC(C)(c2ccc3ccccc3c2)C1=O (centres undefined),"inconclusive: 32.6 µM [falling, single point]",
CC(C)[C@H](NC(=O)[C@@H]1Cc2ccccc2CN1C(=O)OC(C)(C)C)C(=O)NC1CCCC1,"inconclusive: 29.1 µM [falling, single point]",
Nc1c(C(=O)OCC2CCCO2)c2nc3ccccc3nc2n1C1CCCC1 (centres undefined),"inconclusive: 10.3 µM [falling, partial curve, poor fit]",
Cc1ccc(C)c(OCCC(=O)Nc2ccc(S(=O)(=O)N3CCCC3)cc2)c1,"inconclusive: 23.1 µM [falling, single point]",
